Laboratory results: PubChem BioAssay AID1159584 (Peter MacCallum Cancer Centre, 2016)
The deposit covers about 18,000 reagents; this is a part drawn at random. The record does not give: the amount of reagent, the time to read-out.

Assay: 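Genes that CDH1-null MCF10A cells selectively depend on to survive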 (primary screen)
Cells: human MCF10A breast epithelial cells, parental and CDH1-null
Reagent: siRNA against human genes
Detection: 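ATP luminescence (CellTiter-Glo) viability per line relative to mean mock wells over all plates, and the ratio of CDH1-null to parental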
Direction: CDH1-null / parental viability ratio: higher = CDH1-null cells survive relatively better than parental; CDH1-null viability vs mock: higher = more viable CDH1-null cells; parental viability vs mock: higher = more viable parental cells

| target | CDH1-null / parental viability ratio | CDH1-null viability vs mock (fraction of mock) | parental viability vs mock (fraction of mock) |
| --- | --- | --- | --- |
| TRAPPC2L (GeneID 51693) | 1.33 | 0.48 | 0.36 |
| SUB1 (GeneID 10923) | 0.86 | 0.76 | 0.88 |
| OR2A2 (GeneID 442361) | 1.41 | 0.48 | 0.34 |
| FZD6 (GeneID 8323) | 1.13 | 1.06 | 0.94 |
| CHAF1A (GeneID 10036) | 0.95 | 0.4 | 0.42 |
| DHX33 (GeneID 56919) | 1.14 | 0.64 | 0.56 |
| ZMYM1 (GeneID 79830) | 1.39 | 0.92 | 0.66 |
| FAM227B (GeneID 196951) | 0.77 | 0.77 | 1 |
| CLDND1 (GeneID 56650) | 1.21 | 0.58 | 0.48 |
| ZNF106 (GeneID 64397) | 1.17 | 1.02 | 0.87 |
| NAPSA (GeneID 9476) | 1.1 | 0.92 | 0.84 |
| SELENOO (GeneID 83642) | 1.07 | 0.86 | 0.8 |
| CYSLTR2 (GeneID 57105) | 0.82 | 0.76 | 0.93 |
| GSTT2 (GeneID 2953) | 0.89 | 0.84 | 0.94 |
| SLCO1A2 (GeneID 6579) | 1.03 | 0.81 | 0.79 |
| PRXL2A (GeneID 84293) | 0.98 | 1 | 1.02 |
| STPG2 (GeneID 285555) | 0.97 | 1.14 | 1.17 |
| NUTM2G (GeneID 441457) | 0.79 | 0.68 | 0.86 |
| OPN4 (GeneID 94233) | 1.34 | 0.94 | 0.7 |
| C11orf58 (GeneID 10944) | 1.04 | 1.2 | 1.15 |
| ATF4 (GeneID 468) | 1.01 | 0.8 | 0.79 |
| HRG (GeneID 3273) | 0.95 | 0.62 | 0.65 |
| LINC00336 (GeneID 401253) | 0.81 | 0.71 | 0.88 |
| GSDME (GeneID 1687) | 1.33 | 1.17 | 0.88 |
| MOB3C (GeneID 148932) | 1.13 | 1.02 | 0.9 |
| CRCT1 (GeneID 54544) | 0.94 | 0.88 | 0.94 |
| AMER3 (GeneID 205147) | 1.09 | 1 | 0.92 |
| PARP15 (GeneID 165631) | 1.12 | 0.92 | 0.82 |

Copied from the listing (3 entries):
| target | CDH1-null / parental viability ratio | CDH1-null viability vs mock (fraction of mock) | parental viability vs mock (fraction of mock) |
| --- | --- | --- | --- |
| TRAPPC2L (GeneID 51693) | 1.33 | 0.48 | 0.36 |
| SUB1 (GeneID 10923) | 0.86 | 0.76 | 0.88 |
| OR2A2 (GeneID 442361) | 1.41 | 0.48 | 0.34 |
